Data as given in the supplement of paper PMC11732987, “Enantioselective OTUD7B fragment discovery through chemoproteomics screening and high-throughput optimisation” (Communications Chemistry, 2025).
This is one part of the list. The data scatter; read single values as rough.

Amino acid sequences for entries named in this document (tags omitted). A change or cut given only in a name is not applied to a line headed by its entry. Residues count along the entry.
UniProt Q9BX63: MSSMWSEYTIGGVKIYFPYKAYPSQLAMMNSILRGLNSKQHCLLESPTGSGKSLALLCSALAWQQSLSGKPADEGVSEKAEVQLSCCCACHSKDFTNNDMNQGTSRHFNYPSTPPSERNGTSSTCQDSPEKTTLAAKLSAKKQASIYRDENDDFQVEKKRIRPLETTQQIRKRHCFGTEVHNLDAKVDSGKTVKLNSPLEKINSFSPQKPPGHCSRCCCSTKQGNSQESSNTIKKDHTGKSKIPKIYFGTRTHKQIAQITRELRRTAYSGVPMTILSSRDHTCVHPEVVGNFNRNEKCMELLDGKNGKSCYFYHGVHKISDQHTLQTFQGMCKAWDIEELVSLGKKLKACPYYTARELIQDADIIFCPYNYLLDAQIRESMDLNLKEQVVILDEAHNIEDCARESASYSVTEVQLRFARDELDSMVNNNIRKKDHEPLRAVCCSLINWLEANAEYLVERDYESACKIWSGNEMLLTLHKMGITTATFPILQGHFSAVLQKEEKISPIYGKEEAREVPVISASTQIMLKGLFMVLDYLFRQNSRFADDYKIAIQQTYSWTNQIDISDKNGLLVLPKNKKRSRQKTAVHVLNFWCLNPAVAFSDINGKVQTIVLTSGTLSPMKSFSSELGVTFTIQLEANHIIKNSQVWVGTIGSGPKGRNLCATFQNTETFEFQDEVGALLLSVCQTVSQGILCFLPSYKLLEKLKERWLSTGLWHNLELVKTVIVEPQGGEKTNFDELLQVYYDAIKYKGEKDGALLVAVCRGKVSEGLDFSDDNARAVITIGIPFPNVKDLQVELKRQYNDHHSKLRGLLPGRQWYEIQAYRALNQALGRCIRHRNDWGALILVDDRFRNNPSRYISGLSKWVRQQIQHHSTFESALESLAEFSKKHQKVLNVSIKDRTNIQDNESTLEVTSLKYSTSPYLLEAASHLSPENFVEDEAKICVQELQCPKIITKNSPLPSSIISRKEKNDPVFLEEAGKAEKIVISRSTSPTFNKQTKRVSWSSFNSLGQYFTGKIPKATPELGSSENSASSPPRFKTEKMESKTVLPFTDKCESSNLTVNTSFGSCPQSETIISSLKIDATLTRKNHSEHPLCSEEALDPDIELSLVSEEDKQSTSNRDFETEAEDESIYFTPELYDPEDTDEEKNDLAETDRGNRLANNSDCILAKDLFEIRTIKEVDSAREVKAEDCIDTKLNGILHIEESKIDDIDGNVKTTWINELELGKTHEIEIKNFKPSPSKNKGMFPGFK
UniProt Q86WA6: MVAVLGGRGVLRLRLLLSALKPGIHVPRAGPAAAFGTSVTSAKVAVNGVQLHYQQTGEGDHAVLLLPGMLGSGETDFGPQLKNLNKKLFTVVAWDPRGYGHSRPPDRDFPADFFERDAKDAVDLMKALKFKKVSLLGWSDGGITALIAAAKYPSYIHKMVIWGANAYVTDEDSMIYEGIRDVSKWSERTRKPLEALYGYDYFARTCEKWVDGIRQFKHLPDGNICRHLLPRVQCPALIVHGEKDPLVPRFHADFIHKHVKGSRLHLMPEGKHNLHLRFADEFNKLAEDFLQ
UniProt P43251: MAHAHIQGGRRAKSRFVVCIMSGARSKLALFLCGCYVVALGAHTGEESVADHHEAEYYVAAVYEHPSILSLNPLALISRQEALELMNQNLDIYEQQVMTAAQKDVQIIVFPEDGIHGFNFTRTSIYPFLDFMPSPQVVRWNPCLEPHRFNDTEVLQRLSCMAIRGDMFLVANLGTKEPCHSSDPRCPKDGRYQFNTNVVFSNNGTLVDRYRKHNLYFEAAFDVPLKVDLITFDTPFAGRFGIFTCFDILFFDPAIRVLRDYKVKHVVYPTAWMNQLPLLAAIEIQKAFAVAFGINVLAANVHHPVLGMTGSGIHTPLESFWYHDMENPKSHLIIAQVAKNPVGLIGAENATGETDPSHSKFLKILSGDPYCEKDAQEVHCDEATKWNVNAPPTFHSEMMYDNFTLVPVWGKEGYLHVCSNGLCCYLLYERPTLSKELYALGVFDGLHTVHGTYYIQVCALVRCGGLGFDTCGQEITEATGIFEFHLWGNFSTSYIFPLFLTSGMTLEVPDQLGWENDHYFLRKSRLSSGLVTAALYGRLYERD
UniProt Q6PJG6: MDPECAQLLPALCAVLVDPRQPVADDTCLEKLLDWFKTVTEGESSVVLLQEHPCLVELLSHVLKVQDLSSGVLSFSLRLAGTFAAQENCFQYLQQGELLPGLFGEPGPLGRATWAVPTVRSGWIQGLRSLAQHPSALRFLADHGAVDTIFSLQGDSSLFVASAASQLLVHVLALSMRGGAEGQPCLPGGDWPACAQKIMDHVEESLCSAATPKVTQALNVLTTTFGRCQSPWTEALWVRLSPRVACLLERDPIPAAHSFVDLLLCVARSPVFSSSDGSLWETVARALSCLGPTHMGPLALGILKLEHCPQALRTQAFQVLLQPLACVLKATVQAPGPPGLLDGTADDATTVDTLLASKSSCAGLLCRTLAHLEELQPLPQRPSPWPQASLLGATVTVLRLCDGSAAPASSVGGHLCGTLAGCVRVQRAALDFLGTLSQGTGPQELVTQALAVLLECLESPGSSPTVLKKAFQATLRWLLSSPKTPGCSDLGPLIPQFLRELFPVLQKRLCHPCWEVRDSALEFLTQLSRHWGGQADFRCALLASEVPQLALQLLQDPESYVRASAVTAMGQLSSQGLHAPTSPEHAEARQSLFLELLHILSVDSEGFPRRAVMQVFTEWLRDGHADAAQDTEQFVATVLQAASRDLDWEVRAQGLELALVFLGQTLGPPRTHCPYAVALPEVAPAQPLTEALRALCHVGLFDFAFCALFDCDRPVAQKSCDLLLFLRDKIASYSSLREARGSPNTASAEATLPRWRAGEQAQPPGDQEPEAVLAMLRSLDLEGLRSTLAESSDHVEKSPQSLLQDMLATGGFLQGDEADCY
UniProt Q8NFC6, 2321-2346: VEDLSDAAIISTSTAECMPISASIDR
UniProt O75808, 250-272: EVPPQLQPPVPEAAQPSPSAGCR
UniProt Q9UKL3: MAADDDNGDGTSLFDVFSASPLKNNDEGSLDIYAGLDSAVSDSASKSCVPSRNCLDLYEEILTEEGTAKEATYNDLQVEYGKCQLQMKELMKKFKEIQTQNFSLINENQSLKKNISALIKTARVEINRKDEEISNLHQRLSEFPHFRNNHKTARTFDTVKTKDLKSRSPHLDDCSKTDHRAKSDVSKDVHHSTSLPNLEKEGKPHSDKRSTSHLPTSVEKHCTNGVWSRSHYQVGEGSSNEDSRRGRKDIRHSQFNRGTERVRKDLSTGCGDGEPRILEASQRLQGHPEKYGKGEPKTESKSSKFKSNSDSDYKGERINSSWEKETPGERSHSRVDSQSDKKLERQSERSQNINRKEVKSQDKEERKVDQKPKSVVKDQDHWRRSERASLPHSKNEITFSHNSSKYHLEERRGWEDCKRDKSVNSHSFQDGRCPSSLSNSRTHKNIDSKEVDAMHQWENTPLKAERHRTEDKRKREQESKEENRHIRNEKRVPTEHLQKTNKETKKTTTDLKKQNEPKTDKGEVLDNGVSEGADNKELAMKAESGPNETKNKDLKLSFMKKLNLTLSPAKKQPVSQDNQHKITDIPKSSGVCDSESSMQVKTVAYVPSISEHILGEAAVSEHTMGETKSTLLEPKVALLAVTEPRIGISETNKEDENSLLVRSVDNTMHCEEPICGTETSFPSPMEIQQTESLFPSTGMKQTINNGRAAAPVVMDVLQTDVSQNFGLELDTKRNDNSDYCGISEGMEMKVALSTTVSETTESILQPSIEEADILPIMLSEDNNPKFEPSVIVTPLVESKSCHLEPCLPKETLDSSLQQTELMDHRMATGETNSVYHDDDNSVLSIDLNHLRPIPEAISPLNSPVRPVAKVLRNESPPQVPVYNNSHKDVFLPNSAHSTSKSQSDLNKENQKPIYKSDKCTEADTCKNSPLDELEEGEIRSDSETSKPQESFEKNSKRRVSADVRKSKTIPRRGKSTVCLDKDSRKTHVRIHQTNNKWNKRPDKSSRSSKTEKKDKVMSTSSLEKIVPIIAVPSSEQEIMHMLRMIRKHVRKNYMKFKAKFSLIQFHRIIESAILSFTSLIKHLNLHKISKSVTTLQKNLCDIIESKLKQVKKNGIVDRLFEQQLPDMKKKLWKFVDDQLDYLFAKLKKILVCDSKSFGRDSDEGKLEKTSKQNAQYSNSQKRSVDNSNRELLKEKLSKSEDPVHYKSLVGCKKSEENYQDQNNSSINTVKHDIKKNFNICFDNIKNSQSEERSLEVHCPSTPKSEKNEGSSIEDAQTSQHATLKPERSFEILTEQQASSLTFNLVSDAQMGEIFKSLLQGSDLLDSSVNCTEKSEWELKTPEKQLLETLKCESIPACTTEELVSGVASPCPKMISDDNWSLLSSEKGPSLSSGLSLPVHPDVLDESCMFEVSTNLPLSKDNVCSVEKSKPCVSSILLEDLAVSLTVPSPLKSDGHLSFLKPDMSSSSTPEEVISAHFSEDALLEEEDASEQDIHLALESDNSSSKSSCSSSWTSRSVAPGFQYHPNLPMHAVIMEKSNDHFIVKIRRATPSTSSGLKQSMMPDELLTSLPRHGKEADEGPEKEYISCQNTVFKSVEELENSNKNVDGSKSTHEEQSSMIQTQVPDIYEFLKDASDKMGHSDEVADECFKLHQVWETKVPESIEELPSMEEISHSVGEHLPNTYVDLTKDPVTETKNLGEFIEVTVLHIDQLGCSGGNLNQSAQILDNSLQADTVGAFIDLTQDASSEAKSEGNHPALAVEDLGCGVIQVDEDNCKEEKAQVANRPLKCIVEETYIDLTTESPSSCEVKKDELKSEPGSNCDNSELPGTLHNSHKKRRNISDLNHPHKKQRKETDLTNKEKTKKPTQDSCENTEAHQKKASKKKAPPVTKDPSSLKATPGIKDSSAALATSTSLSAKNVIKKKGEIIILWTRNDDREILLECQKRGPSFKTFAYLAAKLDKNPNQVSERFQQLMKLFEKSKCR
UniProt Q9H0E9: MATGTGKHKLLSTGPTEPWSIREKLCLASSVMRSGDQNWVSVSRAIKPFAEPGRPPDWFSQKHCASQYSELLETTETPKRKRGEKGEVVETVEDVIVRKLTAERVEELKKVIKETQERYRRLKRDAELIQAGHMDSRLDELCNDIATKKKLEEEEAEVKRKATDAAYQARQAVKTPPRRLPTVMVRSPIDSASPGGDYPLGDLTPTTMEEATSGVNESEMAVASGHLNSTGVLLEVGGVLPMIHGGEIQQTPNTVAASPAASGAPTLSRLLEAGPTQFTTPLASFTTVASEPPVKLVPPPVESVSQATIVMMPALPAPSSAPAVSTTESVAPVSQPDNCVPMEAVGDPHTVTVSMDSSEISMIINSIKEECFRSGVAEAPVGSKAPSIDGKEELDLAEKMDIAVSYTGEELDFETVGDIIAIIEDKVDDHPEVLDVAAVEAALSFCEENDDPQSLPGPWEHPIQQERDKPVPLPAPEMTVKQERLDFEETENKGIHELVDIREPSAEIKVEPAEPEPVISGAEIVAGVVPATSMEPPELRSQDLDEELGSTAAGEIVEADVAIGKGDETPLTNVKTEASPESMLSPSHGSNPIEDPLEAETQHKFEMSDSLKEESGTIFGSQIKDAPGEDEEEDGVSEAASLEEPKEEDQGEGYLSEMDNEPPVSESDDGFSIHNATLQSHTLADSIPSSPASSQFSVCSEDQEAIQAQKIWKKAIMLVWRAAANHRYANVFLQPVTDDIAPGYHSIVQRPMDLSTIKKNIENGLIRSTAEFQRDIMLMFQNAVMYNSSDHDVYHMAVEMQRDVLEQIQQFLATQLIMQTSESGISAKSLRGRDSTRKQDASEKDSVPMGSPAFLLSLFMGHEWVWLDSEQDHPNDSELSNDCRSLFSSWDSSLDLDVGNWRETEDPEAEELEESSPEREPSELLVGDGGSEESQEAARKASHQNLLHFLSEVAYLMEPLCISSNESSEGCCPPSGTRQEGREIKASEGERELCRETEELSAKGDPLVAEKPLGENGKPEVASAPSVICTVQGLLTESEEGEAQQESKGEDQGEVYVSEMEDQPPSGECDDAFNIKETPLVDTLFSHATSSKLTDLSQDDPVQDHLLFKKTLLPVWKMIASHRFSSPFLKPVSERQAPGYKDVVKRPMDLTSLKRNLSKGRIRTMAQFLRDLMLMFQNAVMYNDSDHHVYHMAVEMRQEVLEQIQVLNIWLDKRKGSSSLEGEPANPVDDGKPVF
UniProt Q9Y6E2: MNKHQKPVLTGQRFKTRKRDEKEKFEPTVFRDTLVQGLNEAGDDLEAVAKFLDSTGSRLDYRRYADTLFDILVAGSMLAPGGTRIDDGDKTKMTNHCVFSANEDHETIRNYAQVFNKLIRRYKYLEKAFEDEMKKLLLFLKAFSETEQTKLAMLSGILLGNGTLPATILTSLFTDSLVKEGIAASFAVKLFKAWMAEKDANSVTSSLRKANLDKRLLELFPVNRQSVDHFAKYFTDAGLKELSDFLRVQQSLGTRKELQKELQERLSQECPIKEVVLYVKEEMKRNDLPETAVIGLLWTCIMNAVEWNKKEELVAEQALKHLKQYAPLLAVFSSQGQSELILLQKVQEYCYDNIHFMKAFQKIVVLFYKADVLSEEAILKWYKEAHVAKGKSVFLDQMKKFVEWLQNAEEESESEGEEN

compound: ClCC(=O)N[C@@H]1CCCc2ccccc12; assay: log2 mean competition ratio of IA-DTB cysteine labelling (DMSO/compound) (log2 ratio); higher = stronger cysteine engagement by compound; conditions: 50 µM; treatment time: 4 h; cell line lysate: HEK293T
Procedure: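 IA-DTB competitive cysteine chemoproteomics in HEK293T RIPA lysate. Lysates were treated with compound 29 or 30 at 50 or 200 µM for 4 h, then IA-DTB (500 µM, 1 h), trypsin-digested, NeutrAvidin-enriched and analysed by diaPASEF. Competition ratio = intensity DMSO / intensity compound (n=4 treated, n=64 DMSO); binding: mean log2 CR ≥ 1 and p ≤ 0.05 plus QC filters. Target is the cysteine site.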

Target	log2 mean competition ratio
C12orf57 C44 (UniProt Q99622)	0.0615
C9orf78 C145 (UniProt Q9NZ63)	-0.243
BRIP1 C1164 (UniProt Q9BX63)	-0.0056
BPHL C225 (UniProt Q86WA6)	-0.0857
BPTF C2888	-0.0169
BTD C371 (UniProt P43251)	-0.213
C2orf72 C244	-0.0885
CAND2 C240 (UniProt O75155)	0.201
BRAT1 C308 (UniProt Q6PJG6)	0.161
BRIP1 C42 (UniProt Q9BX63)	-0.3
C1orf112 C559 (UniProt Q9NSG2)	-0.0397
CAMKMT C281 (UniProt Q7Z624)	0.257
CABIN1 C1197 (UniProt Q9Y6J0)	-0.237
BOD1L1 C74 (UniProt Q8NFC6)	0.157
CAPN15 C271 (UniProt O75808)	-0.329
CASP8AP2 C1100 (UniProt Q9UKL3)	-0.237
BOD1L1 C749 (UniProt Q8NFC6)	0.108
CBFA2T2 C261 (UniProt O43439)	-0.0478
C15orf39 C50 (UniProt Q6ZRI6)	0.0358

Target	log2 mean competition ratio
BRAP C110 (UniProt Q7Z569)	-0.167
BPTF C20	-0.0822
BRD8 C142 (UniProt Q9H0E9)	-0.159
C1orf21 C114	-0.195
CAMSAP1 C719 (UniProt Q5T5Y3)	0.157
BRMS1L C127 (UniProt Q5PSV4)	0.215
C2CD5 C449 (UniProt Q86YS7)	-0.222
CAST C413 (UniProt P20810)	0.0159
C5orf22 C195 (UniProt Q49AR2)	-0.627
BRIX1 C52 (UniProt Q8TDN6)	-0.0604
CAMKK2 C4 (UniProt Q96RR4)	-0.115
BRAT1 C246 (UniProt Q6PJG6)	-0.0988
BZW2 C350 (UniProt Q9Y6E2)	0.212
C3orf80 C177	-0.186
BTF3 C22 (UniProt P20290)	0.205
BUB1 C407 (UniProt O43683)	-0.131
CARS2 C526 (UniProt Q9HA77)	-0.0456
BOD1L1 C2337 (UniProt Q8NFC6)	0.0368
BRAT1 C487 (UniProt Q6PJG6)	0.223

same assay, conditions: 200 µM; treatment time: 4 h; cell line lysate: HEK293T

Target	log2 mean competition ratio
C12orf57 C44 (UniProt Q99622)	0.396
C9orf78 C145 (UniProt Q9NZ63)	-0.17
BRIP1 C1164 (UniProt Q9BX63)	0.0122
BPHL C225 (UniProt Q86WA6)	0.138
BPTF C2888	0.0181
BTD C371 (UniProt P43251)	0.385
C2orf72 C244	0.283
CAND2 C240 (UniProt O75155)	0.173
BRAT1 C308 (UniProt Q6PJG6)	-0.108
BRIP1 C42 (UniProt Q9BX63)	0.47
C1orf112 C559 (UniProt Q9NSG2)	0.0117
CAMKMT C281 (UniProt Q7Z624)	0.188
CABIN1 C1197 (UniProt Q9Y6J0)	0.243
BOD1L1 C74 (UniProt Q8NFC6)	0.202
CAPN15 C271 (UniProt O75808)	0.38
CASP8AP2 C1100 (UniProt Q9UKL3)	-0.55
BOD1L1 C749 (UniProt Q8NFC6)	0.486
CBFA2T2 C261 (UniProt O43439)	0.0624
C15orf39 C50 (UniProt Q6ZRI6)	0.14
